Assay results: US20220196676A1 (NORDIC BIOSCIENCE A S, published 2022)
No constants are given. Whether binding was seen depends on the method and setting. Some binding calls cover weakened binding; strength is not graded here.

Key:
[1] = biological target: T1, selection peptide … (C-terminal 10 amino acids of type VIII collagen α1 chain, 735-744) (human); assay: screening of hybridoma clones against peptides
T1 sequence (peptide): SFSGYLLYPM

[2] = biological target: T1, selection peptide … (C-terminal 10 amino acids of type VIII collagen α1 chain, 735-744) (human); assay: C8-C competitive ELISA, peptide specificity test
[3] = biological target: T1, selection peptide … (C-terminal 10 amino acids of type VIII collagen α1 chain, 735-744) (human); assay: C8-C competitive ELISA

Measured: binding

B1: monoclonal antibody NB683-13G5 (antibody, mouse IgG1, kappa, V domains shown)
VH: EVLLQQSGPELEKPGASVKISCKASGYSLTDYNMNWVKQSDGKSLEWIGIIDPNYGDTNYNQKFKDKATLTVDKSSNTAHMQLKSLTSDDSAVYYCARSGYYGNSHYGLDYWGQGTSVTVSS
VL: QIVLTQSPAIMSASPGERVTMTCSVSSSVGYIHWYQQKSGTSPKRWISDTSKLASGVPSRFSGSGSGASYSLTIDRVEAEDAATYYCQQWSSNPPTFGGGTKLEMKR
notes: also called clone 13G5; monoclonal antibody 13G5
binds: [1] | [2] | [3]
